From the supplement of paper PMC10849652
Some of the results follow.

The chains behind the UniProt entries cited, without tags or fusion partners. Where a name states a change or a piece, a line headed by the entry shows the natural chain unless it says otherwise.
UniProt O00410: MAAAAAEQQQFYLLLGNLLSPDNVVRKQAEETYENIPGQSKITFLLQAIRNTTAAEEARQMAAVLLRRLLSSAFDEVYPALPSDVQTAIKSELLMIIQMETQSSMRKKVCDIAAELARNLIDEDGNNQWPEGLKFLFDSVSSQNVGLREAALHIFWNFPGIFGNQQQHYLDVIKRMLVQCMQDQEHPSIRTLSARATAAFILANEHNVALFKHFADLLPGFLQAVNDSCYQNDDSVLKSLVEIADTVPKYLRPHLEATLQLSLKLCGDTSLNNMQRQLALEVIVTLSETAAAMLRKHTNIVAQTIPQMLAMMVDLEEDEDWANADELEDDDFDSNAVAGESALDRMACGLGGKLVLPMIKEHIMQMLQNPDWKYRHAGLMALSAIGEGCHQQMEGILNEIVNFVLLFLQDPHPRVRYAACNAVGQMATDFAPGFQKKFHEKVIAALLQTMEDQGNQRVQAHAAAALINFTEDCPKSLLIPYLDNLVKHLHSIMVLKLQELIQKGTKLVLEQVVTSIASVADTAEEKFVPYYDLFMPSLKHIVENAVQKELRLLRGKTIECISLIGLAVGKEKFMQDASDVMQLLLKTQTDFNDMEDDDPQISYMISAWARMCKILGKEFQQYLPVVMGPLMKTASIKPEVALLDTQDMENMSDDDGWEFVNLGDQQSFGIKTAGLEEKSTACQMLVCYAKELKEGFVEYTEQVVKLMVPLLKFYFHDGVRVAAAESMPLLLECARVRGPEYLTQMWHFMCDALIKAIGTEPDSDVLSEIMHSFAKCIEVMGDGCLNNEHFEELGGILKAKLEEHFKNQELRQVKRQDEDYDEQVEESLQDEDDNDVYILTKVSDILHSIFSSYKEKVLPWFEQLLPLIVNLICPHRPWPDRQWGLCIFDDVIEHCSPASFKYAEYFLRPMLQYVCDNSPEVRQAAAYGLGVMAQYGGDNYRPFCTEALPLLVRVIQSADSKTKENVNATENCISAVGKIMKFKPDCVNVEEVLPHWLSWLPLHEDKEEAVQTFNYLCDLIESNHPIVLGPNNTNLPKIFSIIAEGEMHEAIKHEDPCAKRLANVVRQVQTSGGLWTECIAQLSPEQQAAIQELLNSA
UniProt Q96HW7, whole entry, looked up: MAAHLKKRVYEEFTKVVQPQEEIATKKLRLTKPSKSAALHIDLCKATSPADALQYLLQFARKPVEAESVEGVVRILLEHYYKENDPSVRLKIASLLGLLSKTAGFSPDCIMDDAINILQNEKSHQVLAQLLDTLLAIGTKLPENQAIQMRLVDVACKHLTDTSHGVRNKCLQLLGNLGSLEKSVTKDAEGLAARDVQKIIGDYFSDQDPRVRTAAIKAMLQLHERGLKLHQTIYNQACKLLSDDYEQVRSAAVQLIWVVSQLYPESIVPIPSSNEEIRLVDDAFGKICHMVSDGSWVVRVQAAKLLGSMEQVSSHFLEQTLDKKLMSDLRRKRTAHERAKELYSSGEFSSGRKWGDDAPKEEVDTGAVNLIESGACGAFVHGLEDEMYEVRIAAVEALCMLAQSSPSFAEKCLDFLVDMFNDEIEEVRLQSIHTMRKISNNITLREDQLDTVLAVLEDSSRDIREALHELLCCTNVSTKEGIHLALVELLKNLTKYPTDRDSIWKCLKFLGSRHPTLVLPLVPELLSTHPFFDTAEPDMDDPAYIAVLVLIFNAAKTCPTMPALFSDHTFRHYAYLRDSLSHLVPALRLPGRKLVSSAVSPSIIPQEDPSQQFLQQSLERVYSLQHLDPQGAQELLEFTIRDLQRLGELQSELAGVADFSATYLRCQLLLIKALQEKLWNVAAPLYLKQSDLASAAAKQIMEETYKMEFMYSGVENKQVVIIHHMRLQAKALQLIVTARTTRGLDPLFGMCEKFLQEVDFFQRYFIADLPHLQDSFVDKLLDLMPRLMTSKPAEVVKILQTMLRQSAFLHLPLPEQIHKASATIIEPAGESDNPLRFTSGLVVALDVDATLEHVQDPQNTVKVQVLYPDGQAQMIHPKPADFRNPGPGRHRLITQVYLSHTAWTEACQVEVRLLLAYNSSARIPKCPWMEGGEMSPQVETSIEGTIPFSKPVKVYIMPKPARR
UniProt P49441: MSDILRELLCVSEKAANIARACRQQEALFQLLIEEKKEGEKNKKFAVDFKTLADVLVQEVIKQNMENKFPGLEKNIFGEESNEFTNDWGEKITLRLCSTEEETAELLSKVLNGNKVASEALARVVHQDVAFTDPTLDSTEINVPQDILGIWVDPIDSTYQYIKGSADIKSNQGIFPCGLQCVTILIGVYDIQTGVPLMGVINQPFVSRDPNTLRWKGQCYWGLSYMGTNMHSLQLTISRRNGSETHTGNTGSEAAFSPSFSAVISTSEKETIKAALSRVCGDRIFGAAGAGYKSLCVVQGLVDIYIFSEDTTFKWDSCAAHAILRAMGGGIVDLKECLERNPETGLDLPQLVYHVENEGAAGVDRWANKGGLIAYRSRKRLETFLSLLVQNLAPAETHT
UniProt O00425, whole entry, looked up: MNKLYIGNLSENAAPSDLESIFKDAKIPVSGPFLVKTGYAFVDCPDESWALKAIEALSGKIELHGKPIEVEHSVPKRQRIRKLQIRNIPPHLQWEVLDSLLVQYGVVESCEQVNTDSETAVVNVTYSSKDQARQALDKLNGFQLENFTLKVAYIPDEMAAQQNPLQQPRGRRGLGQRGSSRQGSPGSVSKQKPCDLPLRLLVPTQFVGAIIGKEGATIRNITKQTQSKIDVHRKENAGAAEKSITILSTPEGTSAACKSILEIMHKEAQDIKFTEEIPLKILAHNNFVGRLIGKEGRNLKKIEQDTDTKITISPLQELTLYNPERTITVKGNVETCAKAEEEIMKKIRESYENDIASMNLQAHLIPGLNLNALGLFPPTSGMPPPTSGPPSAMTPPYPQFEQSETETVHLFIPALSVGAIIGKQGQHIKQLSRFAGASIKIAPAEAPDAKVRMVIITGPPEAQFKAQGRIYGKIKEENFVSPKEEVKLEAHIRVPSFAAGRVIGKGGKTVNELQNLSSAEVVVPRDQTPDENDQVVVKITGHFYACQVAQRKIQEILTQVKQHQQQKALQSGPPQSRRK
UniProt Q13123, whole entry, looked up: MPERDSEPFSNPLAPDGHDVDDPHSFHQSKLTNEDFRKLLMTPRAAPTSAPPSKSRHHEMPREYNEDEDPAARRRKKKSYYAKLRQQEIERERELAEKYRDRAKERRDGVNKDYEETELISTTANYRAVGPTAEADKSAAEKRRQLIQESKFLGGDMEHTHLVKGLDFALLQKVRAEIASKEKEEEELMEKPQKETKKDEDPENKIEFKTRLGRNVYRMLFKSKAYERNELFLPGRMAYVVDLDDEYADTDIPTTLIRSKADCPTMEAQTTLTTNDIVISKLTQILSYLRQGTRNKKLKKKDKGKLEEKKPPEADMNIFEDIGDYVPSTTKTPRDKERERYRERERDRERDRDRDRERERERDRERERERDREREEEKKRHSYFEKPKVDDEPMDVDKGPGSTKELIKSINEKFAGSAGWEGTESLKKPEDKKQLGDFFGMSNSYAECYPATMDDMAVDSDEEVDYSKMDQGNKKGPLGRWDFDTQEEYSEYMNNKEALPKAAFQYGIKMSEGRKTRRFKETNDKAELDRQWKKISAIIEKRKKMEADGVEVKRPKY
UniProt Q12906, whole entry, looked up: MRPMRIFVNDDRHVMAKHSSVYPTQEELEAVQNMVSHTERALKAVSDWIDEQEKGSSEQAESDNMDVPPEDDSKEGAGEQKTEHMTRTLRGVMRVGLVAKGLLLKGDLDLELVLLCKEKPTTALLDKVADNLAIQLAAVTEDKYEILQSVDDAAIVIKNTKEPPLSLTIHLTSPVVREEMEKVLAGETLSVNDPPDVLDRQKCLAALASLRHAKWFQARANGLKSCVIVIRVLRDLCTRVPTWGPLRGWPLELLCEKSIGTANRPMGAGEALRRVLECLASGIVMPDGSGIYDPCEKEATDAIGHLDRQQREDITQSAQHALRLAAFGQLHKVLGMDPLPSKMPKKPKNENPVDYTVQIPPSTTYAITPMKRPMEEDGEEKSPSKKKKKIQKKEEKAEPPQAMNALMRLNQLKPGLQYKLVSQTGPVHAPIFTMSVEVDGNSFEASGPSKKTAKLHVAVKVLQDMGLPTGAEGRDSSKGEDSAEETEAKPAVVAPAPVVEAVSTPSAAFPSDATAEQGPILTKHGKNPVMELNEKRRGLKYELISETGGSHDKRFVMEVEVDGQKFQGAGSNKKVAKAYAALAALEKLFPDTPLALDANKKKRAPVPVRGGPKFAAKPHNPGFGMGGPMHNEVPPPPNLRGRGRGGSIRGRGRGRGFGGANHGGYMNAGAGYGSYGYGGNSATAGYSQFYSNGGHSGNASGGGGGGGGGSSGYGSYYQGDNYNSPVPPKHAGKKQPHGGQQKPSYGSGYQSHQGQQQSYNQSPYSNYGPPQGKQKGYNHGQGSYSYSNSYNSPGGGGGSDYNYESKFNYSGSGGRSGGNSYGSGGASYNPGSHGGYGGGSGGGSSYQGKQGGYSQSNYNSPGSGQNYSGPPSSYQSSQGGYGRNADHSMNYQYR
UniProt Q96CN7: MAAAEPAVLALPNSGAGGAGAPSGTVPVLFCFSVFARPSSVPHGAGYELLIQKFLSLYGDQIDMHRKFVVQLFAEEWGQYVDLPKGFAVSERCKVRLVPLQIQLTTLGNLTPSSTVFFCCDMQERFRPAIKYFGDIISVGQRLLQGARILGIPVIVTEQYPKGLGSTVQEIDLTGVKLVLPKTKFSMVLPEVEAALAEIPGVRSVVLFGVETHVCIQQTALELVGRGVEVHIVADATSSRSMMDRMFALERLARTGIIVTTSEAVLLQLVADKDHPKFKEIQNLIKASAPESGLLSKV
UniProt P22692: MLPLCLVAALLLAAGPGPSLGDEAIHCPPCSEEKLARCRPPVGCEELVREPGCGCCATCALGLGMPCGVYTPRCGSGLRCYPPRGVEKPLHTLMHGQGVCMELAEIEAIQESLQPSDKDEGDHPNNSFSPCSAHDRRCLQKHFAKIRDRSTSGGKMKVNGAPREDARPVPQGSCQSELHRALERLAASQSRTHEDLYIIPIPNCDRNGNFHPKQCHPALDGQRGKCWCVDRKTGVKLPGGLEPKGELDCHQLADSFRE
UniProt P18084: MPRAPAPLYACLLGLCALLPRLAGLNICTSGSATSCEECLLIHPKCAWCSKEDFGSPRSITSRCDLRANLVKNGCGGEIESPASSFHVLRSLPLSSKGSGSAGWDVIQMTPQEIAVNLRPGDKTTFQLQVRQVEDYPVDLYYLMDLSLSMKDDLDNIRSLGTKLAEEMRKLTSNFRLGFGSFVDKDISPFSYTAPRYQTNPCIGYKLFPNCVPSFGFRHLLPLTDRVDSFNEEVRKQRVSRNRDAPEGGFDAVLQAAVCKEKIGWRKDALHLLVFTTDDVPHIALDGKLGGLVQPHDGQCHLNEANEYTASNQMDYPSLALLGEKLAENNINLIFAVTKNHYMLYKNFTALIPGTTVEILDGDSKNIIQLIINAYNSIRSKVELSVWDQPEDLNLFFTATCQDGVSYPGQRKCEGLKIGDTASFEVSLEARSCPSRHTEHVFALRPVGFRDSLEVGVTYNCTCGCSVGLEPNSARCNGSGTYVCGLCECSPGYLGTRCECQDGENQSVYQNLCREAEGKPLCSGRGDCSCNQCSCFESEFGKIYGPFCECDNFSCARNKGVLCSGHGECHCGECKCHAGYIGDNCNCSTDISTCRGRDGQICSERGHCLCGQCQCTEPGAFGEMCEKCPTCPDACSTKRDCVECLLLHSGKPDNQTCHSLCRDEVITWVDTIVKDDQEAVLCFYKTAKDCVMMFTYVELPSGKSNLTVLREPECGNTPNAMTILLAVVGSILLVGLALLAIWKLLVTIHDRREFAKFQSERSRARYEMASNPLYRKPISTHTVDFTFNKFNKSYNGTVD
UniProt Q5TA45, whole entry, looked up: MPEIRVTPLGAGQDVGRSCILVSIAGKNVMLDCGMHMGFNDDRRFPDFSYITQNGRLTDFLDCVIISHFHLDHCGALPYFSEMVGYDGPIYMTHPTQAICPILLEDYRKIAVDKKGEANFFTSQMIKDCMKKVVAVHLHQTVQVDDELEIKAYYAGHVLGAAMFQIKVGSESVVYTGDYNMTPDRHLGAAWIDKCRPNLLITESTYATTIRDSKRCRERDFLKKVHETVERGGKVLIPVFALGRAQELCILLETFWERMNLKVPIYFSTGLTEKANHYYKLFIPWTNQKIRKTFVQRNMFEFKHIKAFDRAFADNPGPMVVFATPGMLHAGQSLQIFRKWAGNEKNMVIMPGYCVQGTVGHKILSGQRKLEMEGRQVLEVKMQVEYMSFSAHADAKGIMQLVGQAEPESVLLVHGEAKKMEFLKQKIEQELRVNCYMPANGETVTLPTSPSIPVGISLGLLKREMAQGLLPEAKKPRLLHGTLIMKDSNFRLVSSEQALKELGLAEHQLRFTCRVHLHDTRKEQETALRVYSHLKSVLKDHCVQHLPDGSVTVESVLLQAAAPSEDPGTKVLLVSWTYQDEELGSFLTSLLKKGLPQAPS

Tests used:
Test in all cases: log2 fold change, soluble protein after heating vs DMSO (PISA); higher = thermal stabilisation; K562 cells, 10 uM, 30 min; active = over 0.2 and 3.5 SD of the protein, either way, in both replicates (recomputed)
[1] = compound: C1=CC=C(C=C1)[C@H](COC2=CC3=C(C=C2)NC(=O)N3)NC(=O)C4=CC=CN(C4=O)CC5=CC(=C(C=C5)F)F
Outline: (§1)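 Aliquots of K562 cells (2×10^6 cells/mL) treated with 10 μM compound for 30 min were heated for 3 min over 48°C-58°C. After pooling and extraction in PBS with 0.5% NP-40 at 4°C, soluble protein from a 21,000xg, 90 min spin was quantified by TMTpro 16plex LC-MS/MS with channel sums equalised. Thermal stability is expressed against control samples, from duplicates, as a log2 fold change.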

[2] = compound: CC1=C(SC2=C1C(=N[C@H](C3=NN=C(N32)C)CC(=O)N)C4=CC=C(C=C4)Cl)C
Outline: as §1

[3] = compound: CC1=C2C(=CC=C1)N=C(N(C2=O)C3=CC=CC=C3C)CN4C=NC5=C(N=CN=C54)N
Outline: as §1

[4] = compound: Cc1sc2c(c1C)C(c1ccc(Cl)cc1)=N[C@@H](CC(=O)OC(C)(C)C)c1nnc(C)n1-2
Outline: as §1

[5] = compound: c1ccc([C@@H]2C[C@H]2NC2CCNCC2)cc1
Outline: as §1

Measured: log2 fold change

IPO5 isoform 3 (UniProt O00410)
inactive: [1] -0.075 | [2] 0.027 | [3] -0.032 | [4] -0.053 | [5] -0.034

IPO8 (UniProt O15397)
inactive: [1] -0.123 | [2] -0.01 | [3] 0.021 | [4] -0.019 | [5] 0.026

IMMP1L (UniProt Q96LU5)
inactive: [1] 0.054 | [2] 0.045 | [3] 0.101 | [4] -0.021 | [5] 0.024

IGFBP2 (UniProt P18065)
inactive: [1] -0.121 | [2] -0.101 | [3] 0.131 | [4] -0.295 | [5] 0.062

INTS4 (UniProt Q96HW7)
inactive: [1] -0.011 | [2] 0.016 | [3] 0.028 | [4] -0.025 | [5] -0.021

INPP1 (UniProt P49441)
inactive: [1] -0.017 | [2] -0.002 | [3] 0.125 | [4] -0.002 | [5] 0.01

IRGQ (UniProt Q8WZA9)
inactive: [1] -0.053 | [2] 0.027 | [3] 0.048 | [4] -0.016 | [5] -0.047

IGF2BP3 (UniProt O00425)
inactive: [1] 0.132 | [2] -0.293 | [3] -0.017 | [4] 0.303 | [5] 0.039

IL18R1 (UniProt Q13478)
inactive: [1] 0.016

Reprinted from the results shown (two entries):
IRGQ (UniProt Q8WZA9)
inactive: [1] -0.053 | [2] 0.027 | [3] 0.048 | [4] -0.016 | [5] -0.047

IGF2BP3 (UniProt O00425)
inactive: [1] 0.132 | [2] -0.293 | [3] -0.017 | [4] 0.303 | [5] 0.039

Next part:

IMPDH2 (UniProt P12268)
inactive: [1] 0.057 | [2] -0.094 | [3] -0.095 | [4] -0.002 | [5] -0.013

IFI30 (UniProt P13284)
inactive: [1] -0.066 | [2] 0.01 | [3] -0.06 | [4] 0.004 | [5] 0.048

ITGAV (UniProt P06756)
inactive: [1] 0.014 | [2] -0.024 | [3] 0.028 | [4] -0.005 | [5] 0.04

IK (UniProt Q13123)
inactive: [1] 0.023 | [2] -0.067 | [3] -0.006 | [4] 0.041 | [5] -0.045

IGF2BP2 (UniProt Q9Y6M1)
inactive: [1] 0.122 | [2] -0.271 | [3] -0.038 | [4] 0.25 | [5] 0.019

ILF3 isoform 7 (UniProt Q12906)
inactive: [1] 0.038 | [2] -0.061 | [3] -0.126 | [4] 0.194 | [5] 0.028

IRF2BP2 (UniProt Q7Z5L9)
inactive: [1] 0.022 | [2] 0.045 | [3] -0.001 | [4] -0.063 | [5] -0.011

ISOC1 (UniProt Q96CN7)
inactive: [1] 0.033 | [2] 0.054 | [3] 0.025 | [4] 0.003 | [5] 0.011

ISOC2 (UniProt Q96AB3)
inactive: [1] 0 | [2] -0.029 | [3] -0.004 | [4] -0.01 | [5] -0.024

IGFBP4 (UniProt P22692)
inactive: [1] -0.019 | [2] -0.046 | [3] 0.087 | [4] -0.103 | [5] 0.148

ITGB5 (UniProt P18084)
inactive: [1] -0.012 | [2] 0.048 | [3] -0.043 | [4] 0.014 | [5] 0.011

IMPA1 (UniProt E5RIP7)
inactive: [1] -0.111

ISYNA1 (UniProt Q9NPH2)
inactive: [1] -0.064 | [2] -0.001 | [3] -0.001 | [4] -0.027 | [5] 0.013

INPP5B (UniProt P32019)
inactive: [1] -0.067 | [2] 0.056 | [3] 0.024 | [4] 0.086 | [5] -0.035

IQGAP2 (UniProt Q13576)
inactive: [1] -0.039 | [2] 0.013 | [3] 0.063 | [4] 0.024 | [5] 0.005

INTS11 (UniProt Q5TA45)
inactive: [1] -0.009 | [2] 0.06 | [3] 0.013 | [4] -0.004 | [5] -0.022

IRAK1 (UniProt P51617)
inactive: [1] -0.189
